The list shows a part of the results.

The target of this experiment is T1, OsSMF1 (Oryza sativa, UniProt Q6ZLB0 1-436).
T1 sequence: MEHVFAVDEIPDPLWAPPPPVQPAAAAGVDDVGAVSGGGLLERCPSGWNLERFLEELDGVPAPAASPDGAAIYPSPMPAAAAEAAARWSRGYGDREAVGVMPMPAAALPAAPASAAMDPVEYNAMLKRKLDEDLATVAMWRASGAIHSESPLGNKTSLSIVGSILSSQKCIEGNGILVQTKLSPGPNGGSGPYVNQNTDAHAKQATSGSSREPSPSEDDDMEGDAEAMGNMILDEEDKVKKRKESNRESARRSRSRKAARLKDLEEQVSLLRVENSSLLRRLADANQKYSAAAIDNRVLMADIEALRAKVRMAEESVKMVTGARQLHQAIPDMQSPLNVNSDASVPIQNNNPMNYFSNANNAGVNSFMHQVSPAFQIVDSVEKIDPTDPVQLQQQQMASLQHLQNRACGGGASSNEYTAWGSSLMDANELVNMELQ
Briefly: protein-binding microarray (RPBM); PBS, 2% BSA, 51.3 ng/ul salmon testes DNA, 50 uM zinc acetate, 200 nM TF, 25 C, 1 h; high values mean tight binding. Particulars: protein: recombinant; tags: N-terminal polyhistidine and DsRed monomer fusion (pET32a); chain copies: 2; label: CyDye5-dUTP incorporated in the synthesized complementary strand; 3' TTTTT single-stranded linker to array surface; dsDNA, one strand shown. In short, it runs like this:
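Binding signal is reported as fluorescence intensity per feature (arbitrary units) from an Axon 4000B scanner. Incubation used 200 nM of each Ni–NTA-purified, N-terminally polyhistidine- and DsRed-fused transcription factor from E. coli BL21-CodonPlus on a double-stranded custom Agilent array for 1 h at 25 °C, with 50 µM zinc acetate in the buffer, followed by washing.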
As to “CGTTTGGACGGTTAGTGCGTCGCGTCGCCGCCCACTCGTCCGGAGTCACCTAGTGCAG”, the binding signal was 4130 fluorescence intensity (a.u.). Next, “GAACACGGCCCGCCACGCTGGCACCAGACGGTTTTGATGGCGGAGTCACCTAGTGCAG”: 7330 fluorescence intensity (a.u.).

For “CACCAAGACGGAGTCAGCAACTGAGAATTCAGGCCCCGTTCGGAGTCACCTAGTGCAG”, the binding signal is 4780 fluorescence intensity (a.u.).

As for “TGGCCGAGAGACCAGCTAGGTAGGAGAGCCCGCGTGCTGCCGGAGTCACCTAGTGCAG”, the binding signal was 15500 fluorescence intensity (a.u.).

Consider “CTATAAGAAATCCATATGAAGGTGTGACTCATCTAGCTGACGGAGTCACCTAGTGCAG”, for which the binding signal is 13200 fluorescence intensity (a.u.). Next, “ACTTGGTGGAGCGAATACAGAGGTCGACGTGGTGGTGTAGCGGAGTCACCTAGTGCAG”: 4420 fluorescence intensity (a.u.); “GATGGGATCACCTACCTCCACGCCGCCACCGACAAGGTCCCGGAGTCACCTAGTGCAG”: 3460 fluorescence intensity (a.u.); “GCCGTCCCGAAATGGAAGCGCCTCAAAAGAAAGCATCCCTCGGAGTCACCTAGTGCAG”: 4620 fluorescence intensity (a.u.). The result for “CCTCAGTGCTACGTCAATTGGCGCAGAATATCGTGTCACCCGGAGTCACCTAGTGCAG” reads 5340 fluorescence intensity (a.u.). The result for “ACTATTACTACCTCAGTTTTGAAATGTATGACGTTGACTTCGGAGTCACCTAGTGCAG” reads 5730 fluorescence intensity (a.u.); that for “CTACCCTCCACCGGTGAGAGCTCCACGTCTCCAACCAAATCGGAGTCACCTAGTGCAG”, 4600 fluorescence intensity (a.u.). For the sequence “GCAAAGAAAGCTACTGCACATAGGCAGGGTGTGCAGTCAGCGGAGTCACCTAGTGCAG”, the binding signal is 3530 fluorescence intensity (a.u.). Next, “TGTTCAGGCACAGGTAATGAGGTGGAGTGTGAGCAGCTTGCGGAGTCACCTAGTGCAG”: 3620 fluorescence intensity (a.u.); “AATGGTACTGATTAGATTATCTCTTTTCCTGAATTCTATGCGGAGTCACCTAGTGCAG”: 5120 fluorescence intensity (a.u.). Turning to “GGGATGCTCATGGATGGACTGCACTTCATTGGGCTGCGTCCGGAGTCACCTAGTGCAG”, the binding signal is 18900 fluorescence intensity (a.u.).

With “GATGATGACGACAGTGACGCATTGGAAGATACATTCGCCTCGGAGTCACCTAGTGCAG”, the binding signal is 5070 fluorescence intensity (a.u.).

With “CTGCTGTTGAGTCAGCTCAGTTAGTTCTCTCCATTTTAGACGGAGTCACCTAGTGCAG”, the binding signal was 9430 fluorescence intensity (a.u.). The result for “GGTAATAGTTTTAGAGGCATTCGATGTATAGTATGTATACCGGAGTCACCTAGTGCAG” reads 3180 fluorescence intensity (a.u.); that for “TGTTTAAGGCTTTAAGCTTGCGTGGCAGCCTGTCAGGCAACGGAGTCACCTAGTGCAG”, 14600 fluorescence intensity (a.u.). The result for “AATATAGTGTTGTTTGGTACTATATCGAGTTGGATTAGTTCGGAGTCACCTAGTGCAG” reads 3190 fluorescence intensity (a.u.); that for “CTACATGTTCTCTGAATCTGAATGAGCTGTATTGTGCACTCGGAGTCACCTAGTGCAG”, 5500 fluorescence intensity (a.u.). Turning to “TAATTCTCTGGATGTGGCCGTGACGAGGACGCGACCGGCCCGGAGTCACCTAGTGCAG”, the binding signal is 5360 fluorescence intensity (a.u.). Next, “AATTCTCACTTGACTCATGATTATCATCTCTACTATCGAACGGAGTCACCTAGTGCAG”: 4140 fluorescence intensity (a.u.). The result for “CGGGCCCCACCCGCCACCAACCCCACGTGCTCCCGTATTCCGGAGTCACCTAGTGCAG” reads 3310 fluorescence intensity (a.u.). Take “TCAGTGGCTTAAAGTCTCAATGCGTCACGCGCGCCGGGCTCGGAGTCACCTAGTGCAG”: the binding signal was 7180 fluorescence intensity (a.u.).

With “GGGGCAAAATAAGGTTTACACATGCATGAACCAGAAGAAACGGAGTCACCTAGTGCAG”, the binding signal is 3170 fluorescence intensity (a.u.). The result for “TATATAAAATGCATCAGATCAGATGCATCGATGAACCAGTCGGAGTCACCTAGTGCAG” reads 3240 fluorescence intensity (a.u.). Next, “CCAAAGCGCTCAGGCCCGTCCAGCCCACGTAGACGACACGCGGAGTCACCTAGTGCAG”: 3210 fluorescence intensity (a.u.); “TCCCGGCGTGTGGTGGTCGGAGGTTGCCATTCATTGGCCGCGGAGTCACCTAGTGCAG”: 4310 fluorescence intensity (a.u.); “CCCCATTGACGCCCACGCACGCCCACACCTCCCCATCAACCGGAGTCACCTAGTGCAG”: 3280 fluorescence intensity (a.u.). The result for “CGATGGCTACGGAGGAGGCGGCTCCACGACGCTACCGTCGCGGAGTCACCTAGTGCAG” reads 16600 fluorescence intensity (a.u.); that for “TCAACGATATACATGATCAGAGTAGGTGACGTGACGACATCGGAGTCACCTAGTGCAG”, 5400 fluorescence intensity (a.u.). For the sequence “CGACGCCGGGGAGTGCCCCTTCTTGAGCGACCAGGTCACCCGGAGTCACCTAGTGCAG”, the binding signal is 3240 fluorescence intensity (a.u.).

As to “GCCGCGGGGTCATACAACGTTGTGGATGACGTAGATGGGCCGGAGTCACCTAGTGCAG”, the binding signal is 7500 fluorescence intensity (a.u.).

Regarding “AGCATGAATACTTTTGTGCAAGCTAACGCTGAGCACGATGCGGAGTCACCTAGTGCAG”, the binding signal is 3980 fluorescence intensity (a.u.).

On to “GCAAAGCCCTCCTCTTCAGCTCTTCTGACGGAAAAGACCACGGAGTCACCTAGTGCAG”, for which the binding signal is 3830 fluorescence intensity (a.u.).

With “ACCCGACCTGCCACGTCGGACCAAGTCCAACGCATTTCCGCGGAGTCACCTAGTGCAG”, the binding signal was 12100 fluorescence intensity (a.u.). Next, “CGTCGATGGCGTGCGTGAGAGCCTCCACGCCTTGCTGCCGCGGAGTCACCTAGTGCAG”: 4660 fluorescence intensity (a.u.). In the case of “CAGAGACATCCACACATTCGTCAGCTCGCTGGCGTCCACGCGGAGTCACCTAGTGCAG”, the binding signal was 3870 fluorescence intensity (a.u.). On to “AGAATTTAAAAGATTCCTAACCAGGCAAACGAACAGAGCCCGGAGTCACCTAGTGCAG”, for which the binding signal is 16000 fluorescence intensity (a.u.).

Take “TGTCTCCTTCGTCACTGGCCACGGCGGTATATAACTCCCTCGGAGTCACCTAGTGCAG”: the binding signal was 23600 fluorescence intensity (a.u.). Turning to “ATTGACAAGATAGATTGTTGCCCAATTTTCGAAGATGCTCCGGAGTCACCTAGTGCAG”, the binding signal was 13400 fluorescence intensity (a.u.).

The values are drawn from article PMC7819943, “Rice protein-binding microarrays: a tool to detect cis-acting elements near promoter regions in rice”.
